The other results are listed elsewhere or left out. No stated cut-off is given here; in the data, active = 1.25 or more and inactive = the rest. Most values come without repeats; read them as rough.
Tested on: Kcc2-LUC knock-in mouse primary cortical neurons (Kcc2 promoter reporter)
Assay: Kcc2 promoter-driven luciferase activity relative to vehicle control (fold of vehicle (ratio)); higher = stronger Kcc2 promoter activation (Kcc2 expression enhancer)
Conditions: 100 nM; 48 h

Compound	Kcc2 promoter-driven luciferase activity
CC1=NC(C(C)C)C(=O)O1 (stereo unspecified) [2-Methyl-4-propan-2-yl-4H-1,3-oxazol-5-one]	active: 1.35
COC(=O)NC1C(C)OC(OC2C/C=C(/C)C3C=CC4C(OC5CC(OC6CCC(OC7CC(O)C(OC8CCC(O)C(C)O8)C(C)O7)C(C)O6)C(OC(C)=O)C(C)O5)C(C)CC(C)C4C3(C)/C(O)=C3/C(=O)OC4(CC(C=O)=CC(O)C4/C=C\2C)C3=O)CC1(C)[N+](=O)[O-] (stereo unspecified)	inactive: 0.8
CN(C)CCOc1ccc(I)cc1Cc1ccccc1	inactive: 0.88
COc1cc(NS(C)(=O)=O)ccc1Nc1c2ccccc2nc2ccccc12 [Amsacrine]	inactive: 0.99
OCCNCN(CNCCO)c1nc(N(CNCCO)CNCCO)nc(N(CNCCO)CNCCO)n1 [Hexahydroxyethylaminomethyl melamine]	inactive: 0.77
O=C1CCCCCCCCCCCCCCCO1 [Hexadecanolactone]	inactive: 1.06
Cc1cc2nc(C=C(C(F)(F)F)C(F)(F)F)oc2cc1C	inactive: 1.07
CCc1cccc(C(C)C)c1NC(=O)/C(=N\NC(N)=O)C(C(=O)OC)c1cnc2ccccc2n1 (stereo unspecified)	inactive: 1.03
Nc1nncs1 [2-Amino-1,3,4-thiadiazole]	active: 1.27
O=C(CCCN1CCC(C(O)c2ccc(F)cc2)CC1)c1ccc(F)cc1 (stereo unspecified) [Dihydrolenperone]	inactive: 1.06
CCC(C(=O)C(C)C(O)C(C)CCc1ccc(C)c(O)c1C(=O)O)C1OC(CC)(C2CCC(O)(CC)C(C)O2)CC1C (stereo unspecified) [Bovatec R]	inactive: 1.14

Reformatted bar-delimited: entries from further up
Compound | Kcc2 promoter-driven luciferase activity
CCc1cccc(C(C)C)c1NC(=O)/C(=N\NC(N)=O)C(C(=O)OC)c1cnc2ccccc2n1 (stereo unspecified) | inactive: 1.03
Nc1nncs1 [2-Amino-1,3,4-thiadiazole] | active: 1.27

Reference: the supplement of paper PMC8551327
